PubChem BioAssay AID504764 | Drosophila RNAi Screening Center, 2011
The screen tested about 22,000 reagents; this is an unselected part of those that have a named target and a result. Over the whole deposit, 403 (1.9%) are marked active. 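Unnormalised raw counts per well; ratio z-scores behind the hit calls and whether each hit raises or lowers signal are not deposited.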 Not given: the amount of reagent.

Aim: 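Genome-wide screen for regulators of Notch-driven gene expression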 (primary screen)
System: Drosophila Kc167 cells
Knock-down reagent: long dsRNA against Drosophila genes
Duration: about 5 days (4 days dsRNA, then 24 h after transfection)
Treatment: transfection of constitutively active membrane-tethered Notch lacking the extracellular domain, read 24 h later
Read-out: 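Light from a Notch-responsive E(spl)m3 luciferase reporter under active Notch, with control-promoter and no-Notch reporter wells to normalise; raw counts from paired wells a and b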
Direction: induced reporter light, run 1, well a and induced reporter light, run 1, well b: higher = more light from the Notch target reporter with active Notch; control promoter light, run 1, well a and control promoter light, run 1, well b: higher = more light from the viral control promoter (cell number, transfection, viability); uninduced reporter light, run 1, well a: higher = more light from the Notch target reporter without active Notch
Rule for the call: 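Hit if the duplicate-averaged log2 ratio of induced to control-promoter light gives a plate-wise z beyond ±2, or induced to uninduced beyond ±1.8; weak-control or discordant-duplicate wells dropped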
Meaning of the calls: active = modifier hit (raised or lowered Notch signal); inactive = not a hit

| Gene | dsRNA | induced reporter light, run 1, well a | induced reporter light, run 1, well b | control promoter light, run 1, well a | control promoter light, run 1, well b | uninduced reporter light, run 1, well a | Outcome |
| --- | --- | --- | --- | --- | --- | --- | --- |
| CG10194 | DRSC02025 | 2.16e5 | 2.30e5 | 2.26e5 | 2.05e5 | 20070 | inactive |
| CG7102 | DRSC02647 | 1.56e5 | 1.89e5 | 1.67e5 | 1.94e5 | 16300 | inactive |
| CG7102 | DRSC03007 | 1.47e5 | 1.70e5 | 1.27e5 | 1.17e5 | 17615 | inactive |
| CG4630 | DRSC06874 | 1.52e5 | 1.35e5 | 1.41e5 | 1.27e5 | 15470 | inactive |
| CG42342 | DRSC13165 | 1.01e5 | 1.01e5 | 1.22e5 | 1.28e5 | 7190 | inactive |
| CG42342 | DRSC14378 | 8300 | 7235 | 9505 | 8765 | 3770 | inactive |
| CG42342 | DRSC15010 | 21390 | 20220 | 15950 | 16055 | 1810 | inactive |
| CG42342 | DRSC15011 | 2.97e5 | 2.59e5 | 2.57e5 | 2.39e5 | 20018 | inactive |
| CG42342 | DRSC15012 | 2.67e5 | 3.15e5 | 2.78e5 | 2.51e5 | 21970 | inactive |
| GlcT | DRSC04525 | 1.66e5 | 1.75e5 | 1.25e5 | 1.29e5 | 10355 | inactive |
| sr | DRSC13284 | 76180 | 69660 | 92025 | 74025 | 9465 | inactive |
| sr | DRSC17067 | 15555 | 16835 | 12540 | 13715 | 4900 | inactive |
| SuUR | DRSC11292 | 1.55e5 | 1.21e5 | 1.59e5 | 1.77e5 | 6332 | inactive |
| Spn43Ab | DRSC06781 | 2.46e5 | 2.23e5 | 2.12e5 | 1.79e5 | 17475 | active |
| wdb | DRSC14163 | 1.67e5 | 1.26e5 | 1.66e5 | 1.83e5 | 11542 | inactive |
| Cyp4d20 | DRSC08654 | 96545 | 1.16e5 | 1.28e5 | 1.38e5 | 6510 | inactive |
| CG8840 | DRSC00713 | 1.70e5 | 1.28e5 | 1.31e5 | 1.39e5 | 10505 | inactive |
| CG13465 | DRSC10011 | 1.91e5 | 2.04e5 | 2.54e5 | 1.82e5 | 8665 | inactive |

Reprinted from the listing (8 entries):
| Gene | dsRNA | induced reporter light, run 1, well a | induced reporter light, run 1, well b | control promoter light, run 1, well a | control promoter light, run 1, well b | uninduced reporter light, run 1, well a | Outcome |
| --- | --- | --- | --- | --- | --- | --- | --- |
| CG42342 | DRSC15011 | 2.97e5 | 2.59e5 | 2.57e5 | 2.39e5 | 20018 | inactive |
| CG42342 | DRSC15012 | 2.67e5 | 3.15e5 | 2.78e5 | 2.51e5 | 21970 | inactive |
| GlcT | DRSC04525 | 1.66e5 | 1.75e5 | 1.25e5 | 1.29e5 | 10355 | inactive |
| sr | DRSC13284 | 76180 | 69660 | 92025 | 74025 | 9465 | inactive |
| sr | DRSC17067 | 15555 | 16835 | 12540 | 13715 | 4900 | inactive |
| SuUR | DRSC11292 | 1.55e5 | 1.21e5 | 1.59e5 | 1.77e5 | 6332 | inactive |
| Spn43Ab | DRSC06781 | 2.46e5 | 2.23e5 | 2.12e5 | 1.79e5 | 17475 | active |
| wdb | DRSC14163 | 1.67e5 | 1.26e5 | 1.66e5 | 1.83e5 | 11542 | inactive |

Continued.
| Gene | dsRNA | induced reporter light, run 1, well a | induced reporter light, run 1, well b | control promoter light, run 1, well a | control promoter light, run 1, well b | uninduced reporter light, run 1, well a | Outcome |
| --- | --- | --- | --- | --- | --- | --- | --- |
| CG31231 | DRSC13308 | 71165 | 55015 | 1.05e5 | 86130 | 9815 | inactive |
| CG6051 | DRSC15956 | 1.20e5 | 1.59e5 | 1.69e5 | 1.74e5 | 11715 | inactive |
| Tmlh | DRSC15563 | 1.46e5 | 1.43e5 | 1.71e5 | 1.61e5 | 10595 | inactive |
| Galk | DRSC10500 | 1.03e5 | 92925 | 80635 | 31905 | 9790 | inactive |
| CG8850 | DRSC07287 | 1.05e5 | 89270 | 1.55e5 | 1.16e5 | 9690 | inactive |
| Axs | DRSC19333 | 1.00e5 | 1.03e5 | 1.01e5 | 92100 | 11385 | inactive |
| trr | DRSC18845 | 56425 | 44325 | 51925 | 48040 | 8405 | inactive |
| CG12084 | DRSC08247 | 93375 | 1.04e5 | 1.86e5 | 2.18e5 | 9595 | inactive |
| CG2656 | DRSC12584 | 1.09e5 | 1.31e5 | 92310 | 87980 | 9270 | inactive |
| CG7631 | DRSC01873 | 1.20e5 | 1.46e5 | 1.34e5 | 1.42e5 | 10690 | inactive |
| dj-1beta | DRSC14599 | 1.20e5 | 1.18e5 | 1.90e5 | 1.73e5 | 9765 | inactive |
| CG13801 | DRSC08335 | 1.03e5 | 1.34e5 | 1.86e5 | 1.58e5 | 6135 | inactive |
| Peritrophin-A | DRSC20570 | 1.22e5 | 1.16e5 | 1.01e5 | 49555 | 8610 | inactive |
| ACOX1 | DRSC05941 | 92180 | 93670 | 1.41e5 | 1.88e5 | 7780 | inactive |
| Fbxo42 | DRSC04529 | 1.89e5 | 2.11e5 | 1.54e5 | 1.63e5 | 13770 | inactive |
| YL-1 | DRSC02765 | 1.14e5 | 1.40e5 | 85450 | 1.25e5 | 15945 | inactive |
| RpL24-like | DRSC16111 | 76385 | 77820 | 64335 | 42470 | 5535 | inactive |
| CG7582 | DRSC16261 | 1.71e5 | 1.51e5 | 1.92e5 | 1.72e5 | 12350 | inactive |
| CG6420 | DRSC16035 | 11350 | 9160 | 13890 | 10600 | 710 | inactive |
| dnk | DRSC16933 | 1.97e5 | 1.60e5 | 1.98e5 | 1.91e5 | 13095 | inactive |
| CG7420 | DRSC00704 | 2.25e5 | 2.10e5 | 2.45e5 | 2.55e5 | 20265 | inactive |
| fu | DRSC20333 | 65425 | 70040 | 59025 | 66320 | 7095 | inactive |
| to | DRSC17086 | 1.58e5 | 1.52e5 | 2.27e5 | 2.31e5 | 14635 | inactive |
| Syx5 | DRSC03432 | 1.73e5 | 1.71e5 | 1.62e5 | 1.48e5 | 12210 | inactive |
| CG7341 | DRSC10818 | 1.29e5 | 1.15e5 | 66640 | 75725 | 8520 | inactive |
| Rad60 | DRSC15580 | 1.04e5 | 98055 | 80960 | 1.21e5 | 8610 | inactive |
| LeuRS-m | DRSC08595 | 1.46e5 | 1.32e5 | 83105 | 51690 | 12832 | inactive |
| CG14292 | DRSC14772 | 2.31e5 | 2.08e5 | 2.58e5 | 2.58e5 | 17430 | inactive |
| Mal-A1 | DRSC07461 | 1.50e5 | 1.91e5 | 2.25e5 | 2.50e5 | 15090 | inactive |
| CG10802 | DRSC17762 | 1.67e5 | 2.39e5 | 2.48e5 | 2.18e5 | 14035 | inactive |
| Cyp6u1 | DRSC05015 | 1.63e5 | 1.59e5 | 1.28e5 | 1.51e5 | 12470 | inactive |
| CSN8 | DRSC02257 | 2.21e5 | 2.10e5 | 1.84e5 | 2.06e5 | 22995 | inactive |
